Source: PubChem BioAssay AID504808 (Drosophila RNAi Screening Center, 2011)
The deposit covers about 21,000 reagents; this is a random part of those with a known target gene and a result. Of all reagents, 18 (0.084%) got an active call. 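Raw counts without plate normalisation, one of two replicates; the ratio scores behind the calls were not deposited.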 Reagents against one gene are numbered here. The record does not give: the amount of reagent, the time to read-out.

Test: 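Fly genes required to hold E2F transcription in check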 (primary screen)
Cells: Drosophila S2 cells
Reagent: long dsRNA against Drosophila genes
Measured: 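Firefly luciferase driven by E2F sites, normalised to Renilla luciferase on the same minimal promoter, measured by plate reader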
Scale: E2F firefly: higher = more E2F reporter activity; Renilla normaliser: higher = more normaliser reporter signal
Active means: 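Called active if the normalised E2F reporter went up by over 50%; the cutoff is arbitrary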

CR14117
- E2F firefly, rep 1: 1.55e5
- Renilla normaliser, rep 1: 8722
- Outcome: inactive

Pex7
- E2F firefly, rep 1: 1.05e5
- Renilla normaliser, rep 1: 4001
- Outcome: inactive

mthl12
- E2F firefly, rep 1: 97899
- Renilla normaliser, rep 1: 2568
- Outcome: inactive

CG8281
- E2F firefly, rep 1: 98837
- Renilla normaliser, rep 1: 3848
- Outcome: inactive

Irbp
- E2F firefly, rep 1: 1.58e5
- Renilla normaliser, rep 1: 6866
- Outcome: inactive

blw
- E2F firefly, rep 1: 76532
- Renilla normaliser, rep 1: 3951
- Outcome: inactive

CG17486
- E2F firefly, rep 1: 72219
- Renilla normaliser, rep 1: 3302
- Outcome: inactive

Sptr
- E2F firefly, rep 1: 8126
- Renilla normaliser, rep 1: 848
- Outcome: inactive

ind
- E2F firefly, rep 1: 1.20e5
- Renilla normaliser, rep 1: 5703
- Outcome: inactive

Arl5
- E2F firefly, rep 1: 75653
- Renilla normaliser, rep 1: 3346
- Outcome: inactive

CG15498
- E2F firefly, rep 1: 1.69e5
- Renilla normaliser, rep 1: 8291
- Outcome: inactive

CG33557
- E2F firefly, rep 1: 1.25e5
- Renilla normaliser, rep 1: 6086
- Outcome: inactive

Sar1
- E2F firefly, rep 1: 91111
- Renilla normaliser, rep 1: 6256
- Outcome: inactive

grau
- E2F firefly, rep 1: 98330
- Renilla normaliser, rep 1: 4015
- Outcome: inactive

Hsp60C
- E2F firefly, rep 1: 1.67e5
- Renilla normaliser, rep 1: 5652
- Outcome: inactive

Vhl
- E2F firefly, rep 1: 1.01e5
- Renilla normaliser, rep 1: 4255
- Outcome: inactive

l(2)k09022
- E2F firefly, rep 1: 93686
- Renilla normaliser, rep 1: 4070
- Outcome: inactive

Exn #1
- E2F firefly, rep 1: 74567
- Renilla normaliser, rep 1: 3666
- Outcome: inactive

Exn #2
- E2F firefly, rep 1: 1.61e5
- Renilla normaliser, rep 1: 8322
- Outcome: inactive

CG12078
- E2F firefly, rep 1: 1.06e5
- Renilla normaliser, rep 1: 4631
- Outcome: inactive

CG31760
- E2F firefly, rep 1: 1.11e5
- Renilla normaliser, rep 1: 4371
- Outcome: inactive

CG3430
- E2F firefly, rep 1: 89947
- Renilla normaliser, rep 1: 4144
- Outcome: inactive

COX6B
- E2F firefly, rep 1: 1.59e5
- Renilla normaliser, rep 1: 6289
- Outcome: inactive

CG15535
- E2F firefly, rep 1: 1.28e5
- Renilla normaliser, rep 1: 6221
- Outcome: inactive

CG4281
- E2F firefly, rep 1: 1788
- Renilla normaliser, rep 1: 972
- Outcome: inactive

mtd #1
- E2F firefly, rep 1: 75182
- Renilla normaliser, rep 1: 3327
- Outcome: inactive

mtd #2
- E2F firefly, rep 1: 78611
- Renilla normaliser, rep 1: 3689
- Outcome: inactive

mtd #3
- E2F firefly, rep 1: 1.30e5
- Renilla normaliser, rep 1: 5141
- Outcome: inactive

Limited to “E2F firefly, rep 1”, for 2 of the entries above:
Exn #1: 74567
Exn #2: 1.61e5
